{"source": "PubChem BioAssay AID743454 (Peter MacCallum Cancer Centre, 2014)", "aim": "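Search for knock-downs that restore vorinostat killing in resistant colon cancer cells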 (primary screen)", "cell system": "human HCT116-VR colon cancer cells, selected for vorinostat resistance", "knock-down reagent": "siRNA pool against human genes, 40 nM siRNA pool", "time to read-out": "vorinostat for 24 h, read-out about 72 h after transfection", "challenge": "vorinostat at 2.5 µM final", "measurement": "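Cell viability by CellTiter-Fluor and caspase 3/7 activity by luminescence, each scaled to mock wells per plate, duplicates averaged, then robust z-scored over all plates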", "direction": "viability robust z-score: higher = more viable cells than screen typical; caspase robust z-score: higher = more caspase 3/7 activity than screen typical", "rule for the call": "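Hits are knock-downs in viability class RV1/RV2 or caspase class CA1/CA2, excluding ones that killed cells in the no-drug cell-count arm; hits then retested with single siRNAs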", "note": "Shown is one part, drawn at random, of about 18,000 reagents. Over the whole deposit, 450 (2.5%) were called active. 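Single biological run; no consistent viability z cut-off exists, so the class columns, not z-scores, define the calls.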 Reagent sequences are not shown."}
{"gene":"STKLD1 (serine/threonine kinase like domain containing 1)","viability hit class":"no change","caspase hit class":"no change","viability robust z-score":-2.5,"caspase robust z-score":1.57,"outcome":"inactive"}
{"gene":"SIK2 (salt inducible kinase 2)","viability hit class":"no change","caspase hit class":"no change","viability robust z-score":-0.92,"caspase robust z-score":0.98,"outcome":"inactive"}
{"gene":"STX10 (syntaxin 10)","viability hit class":"no change","caspase hit class":"no change","viability robust z-score":0.92,"caspase robust z-score":0.96,"outcome":"inactive"}
{"gene":"SPINK13 (serine peptidase inhibitor Kazal type 13)","viability hit class":"no change","caspase hit class":"no change","viability robust z-score":0.12,"caspase robust z-score":-0.02,"outcome":"inactive"}
{"gene":"PRR11 (proline rich 11)","viability hit class":"no change","caspase hit class":"no change","viability robust z-score":0.46,"caspase robust z-score":0.36,"outcome":"inactive"}
{"gene":"BPTF (bromodomain PHD finger transcription factor)","viability hit class":"no change","caspase hit class":"no change","viability robust z-score":-1.77,"caspase robust z-score":3.3,"outcome":"inactive"}
{"gene":"CYTH1 (cytohesin 1)","viability hit class":"no change","caspase hit class":"no change","viability robust z-score":-0.12,"caspase robust z-score":1.2,"outcome":"inactive"}
{"gene":"MSTN (myostatin)","viability hit class":"no change","caspase hit class":"no change","viability robust z-score":1.47,"caspase robust z-score":1.21,"outcome":"inactive"}
{"gene":"LBX1 (ladybird homeobox 1)","viability hit class":"no change","caspase hit class":"no change","viability robust z-score":-0.22,"caspase robust z-score":0.9,"outcome":"inactive"}
{"gene":"IFT46 (intraflagellar transport 46)","viability hit class":"no change","caspase hit class":"no change","viability robust z-score":0.51,"caspase robust z-score":0.13,"outcome":"inactive"}
{"gene":"DOHH (deoxyhypusine hydroxylase)","viability hit class":"no change","caspase hit class":"no change","viability robust z-score":0.11,"caspase robust z-score":-0.6,"outcome":"inactive"}
{"gene":"PHEX (phosphate regulating endopeptidase X-linked)","viability hit class":"no change","caspase hit class":"no change","viability robust z-score":0.32,"caspase robust z-score":0.18,"outcome":"inactive"}
{"gene":"CASS4 (Cas scaffold protein family member 4)","viability hit class":"no change","caspase hit class":"no change","viability robust z-score":0.06,"caspase robust z-score":1.24,"outcome":"inactive"}
{"gene":"UBE2D3 (ubiquitin conjugating enzyme E2 D3)","viability hit class":"no change","caspase hit class":"no change","viability robust z-score":-1.59,"caspase robust z-score":3.23,"outcome":"inactive"}
{"gene":"RALGAPB (Ral GTPase activating protein non-catalytic subunit beta)","viability hit class":"no change","caspase hit class":"no change","viability robust z-score":1.68,"caspase robust z-score":-0.11,"outcome":"inactive"}
{"gene":"MAP4K2 (mitogen-activated protein kinase kinase kinase kinase 2)","viability hit class":"no change","caspase hit class":"no change","viability robust z-score":1.71,"caspase robust z-score":-0.44,"outcome":"inactive"}
{"gene":"PDXK (pyridoxal kinase)","viability hit class":"no change","caspase hit class":"no change","viability robust z-score":1.08,"caspase robust z-score":-0.84,"outcome":"inactive"}
{"gene":"NFKBIA (NFKB inhibitor alpha)","viability hit class":"no change","caspase hit class":"no change","viability robust z-score":0.19,"caspase robust z-score":0.29,"outcome":"inactive"}
{"gene":"KCNMB2","viability hit class":"no change","caspase hit class":"no change","viability robust z-score":-0.44,"caspase robust z-score":-0.88,"outcome":"inactive"}
{"gene":"FZD2 (frizzled class receptor 2)","viability hit class":"no change","caspase hit class":"no change","viability robust z-score":-0.43,"caspase robust z-score":4.05,"outcome":"inactive"}
{"gene":"PAAF1 (proteasomal ATPase associated factor 1)","viability hit class":"no change","caspase hit class":"no change","viability robust z-score":-0.66,"caspase robust z-score":0.32,"outcome":"inactive"}

3 of these entries, set out differently.
gene,viability hit class,caspase hit class,viability robust z-score,caspase robust z-score,outcome
MAP4K2 (mitogen-activated protein kinase kinase kinase kinase 2),no change,no change,1.71,-0.44,inactive
PDXK (pyridoxal kinase),no change,no change,1.08,-0.84,inactive
NFKBIA (NFKB inhibitor alpha),no change,no change,0.19,0.29,inactive
